Results are given in words; binding and its absence hold for the method and conditions named. Binding seen in cells or lysates may run through a third protein. Some results given as binding are weak or reduced against the parent protein; the word gives no strength.
Target: CD44 (human (endogenous in MCF7 or T47D; the line is not named for this experiment)) (UniProt P16070)
Test: co-IP; RIPA whole-cell extracts pre-cleared with normal IgG and protein A/G agarose beads; anti-CD44 antibody (2-3 ug) with protein A/G agarose at 4 °C overnight; washed three times with PBS; blot with anti-Ezrin or anti-Merlin; cells with or without co-culture with THP-1-derived M2-like macrophages in a non-contact transwell system

The chains behind the UniProt entries cited, without tags or fusion partners. Where a name states a change or a piece, a line headed by the entry shows the natural chain unless it says otherwise. Residues count along the entry.
UniProt P16070, residues 21-742: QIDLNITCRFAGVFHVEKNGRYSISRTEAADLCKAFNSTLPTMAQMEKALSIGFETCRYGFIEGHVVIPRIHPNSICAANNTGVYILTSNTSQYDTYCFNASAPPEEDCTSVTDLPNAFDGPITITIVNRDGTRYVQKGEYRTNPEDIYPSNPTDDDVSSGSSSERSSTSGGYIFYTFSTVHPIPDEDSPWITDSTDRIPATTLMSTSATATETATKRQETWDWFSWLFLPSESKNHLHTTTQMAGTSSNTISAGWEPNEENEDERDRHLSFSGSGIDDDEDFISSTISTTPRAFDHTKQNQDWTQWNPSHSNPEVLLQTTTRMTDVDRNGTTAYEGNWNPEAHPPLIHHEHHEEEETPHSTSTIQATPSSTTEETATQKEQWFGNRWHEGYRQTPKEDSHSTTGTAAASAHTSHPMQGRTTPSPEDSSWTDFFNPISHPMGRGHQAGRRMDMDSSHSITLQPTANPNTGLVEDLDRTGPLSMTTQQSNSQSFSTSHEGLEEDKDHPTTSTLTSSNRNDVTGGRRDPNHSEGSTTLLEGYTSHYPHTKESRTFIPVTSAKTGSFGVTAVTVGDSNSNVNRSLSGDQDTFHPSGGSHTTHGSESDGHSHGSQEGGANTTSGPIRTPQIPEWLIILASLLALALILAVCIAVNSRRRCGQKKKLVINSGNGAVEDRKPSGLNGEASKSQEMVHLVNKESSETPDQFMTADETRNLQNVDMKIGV
UniProt P35240: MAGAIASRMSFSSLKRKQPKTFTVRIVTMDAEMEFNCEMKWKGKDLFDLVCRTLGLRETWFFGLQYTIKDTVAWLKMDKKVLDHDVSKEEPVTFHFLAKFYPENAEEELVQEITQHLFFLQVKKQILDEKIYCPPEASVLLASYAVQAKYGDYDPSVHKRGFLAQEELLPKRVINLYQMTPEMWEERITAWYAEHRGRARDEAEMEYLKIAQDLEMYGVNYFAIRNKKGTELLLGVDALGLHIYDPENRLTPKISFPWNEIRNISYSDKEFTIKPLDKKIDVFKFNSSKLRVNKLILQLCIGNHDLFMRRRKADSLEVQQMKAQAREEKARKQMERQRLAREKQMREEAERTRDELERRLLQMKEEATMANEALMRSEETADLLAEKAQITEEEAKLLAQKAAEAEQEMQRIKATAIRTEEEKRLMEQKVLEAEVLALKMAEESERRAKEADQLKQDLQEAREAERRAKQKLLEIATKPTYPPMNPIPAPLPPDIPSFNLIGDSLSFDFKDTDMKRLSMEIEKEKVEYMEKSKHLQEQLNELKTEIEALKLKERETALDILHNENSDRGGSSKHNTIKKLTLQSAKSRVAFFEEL

- binding: binds
Substance: Merlin (from UniProt P35240 1-595)
